# Values from PubChem BioAssay AID1259308 (NCATS, 2017)
# Purpose: 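Genes whose loss raises luciferase production in HEK293 cells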 (primary screen)
# Cells: human HEK293 embryonic kidney cells stably expressing firefly luciferase (HEK-CMV-Luc2-Hygro)
# Reagent: single siRNA against human genes, 0.8 pmol siRNA per well
# Duration: 72 h
# Measured: 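Reporter luminescence and viable-cell signal on separate replicate plates, given as percent of non-targeting control and median/MAD z-scores, plus per-cell luciferase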
# Direction: total luciferase, z-score: higher = more reporter protein produced
# Hit rule: 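Active when the median/MAD z-score for overall luciferase is greater than 3; a gene was taken forward for validation with new siRNAs if at least two of its three siRNAs passed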
# Meaning of the calls: active = raised luciferase; inactive = no rise
# Shown is a random part of about 59,000 reagents tested. Of all reagents, about 1,510 (2.6%) were called active. 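Calls use total luciferase alone and ignore viability, so some active siRNAs may act by altering cell number.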 Reagents against one gene are numbered here. Further read-outs or replicates are left out here.
gene,reagent no.,"total luciferase, z-score",Call
ATAD3A,1,0.443,inactive
ATAD3A,2,-0.559,inactive
ATAD3A,3,-0.99,inactive
ACYP2,1,0.449,inactive
ACYP2,2,-0.415,inactive
ACYP2,3,1.16,inactive
DDX24,1,-3.24,inactive
DDX24,2,-2.65,inactive
DDX24,3,-1.67,inactive
ASPH,1,-0.197,inactive
ASPH,2,0.116,inactive
ASPH,3,-0.338,inactive
PAK1,1,0.643,inactive
PAK1,2,-0.339,inactive
PAK1,3,-0.458,inactive
TSC1,1,-0.429,inactive
TSC1,2,0.646,inactive
TSC1,3,-0.798,inactive
PCLAF,1,-0.0689,inactive
PCLAF,2,0.906,inactive
PCLAF,3,2.42,inactive
FAHD1,1,-0.123,inactive
FAHD1,2,-1.17,inactive
FAHD1,3,1.7,inactive
KCNH3,1,0.197,inactive
KCNH3,2,0.103,inactive
KCNH3,3,0.893,inactive
PELI1,1,0.618,inactive
PELI1,2,0.886,inactive
PELI1,3,-0.714,inactive
OR4K17,1,0.232,inactive
OR4K17,2,2.45,inactive
OR4K17,3,-0.0809,inactive
CEBPZ,1,-1.7,inactive
CEBPZ,2,-1.29,inactive
CEBPZ,3,-1.62,inactive
M6PR,1,3.4,active
M6PR,2,-0.103,inactive
M6PR,3,-0.731,inactive

Laid out differently: results already given.
{"gene": "PELI1", "reagent no.": 1, "total luciferase, z-score": 0.618, "Call": "inactive"}
{"gene": "PELI1", "reagent no.": 2, "total luciferase, z-score": 0.886, "Call": "inactive"}
{"gene": "PELI1", "reagent no.": 3, "total luciferase, z-score": -0.714, "Call": "inactive"}
{"gene": "OR4K17", "reagent no.": 1, "total luciferase, z-score": 0.232, "Call": "inactive"}
{"gene": "OR4K17", "reagent no.": 2, "total luciferase, z-score": 2.45, "Call": "inactive"}
